According to publication PMC10618185:

Tests used:
[1] = target: T1, Myc-VPS41 (human (cDNA from HeLa Kyoto cells)), P49754; assay: affinity purification with mass spectrometry; WT HeLa cells with single expression of Myc- or HA-tagged bait; IP with anti-Myc or anti-HA antibodies and magnetic beads; eluate resolved by SDS-PAGE, in-gel trypsin digestion, LC-MS/MS (MASCOT, Scaffold 5); high probability threshold; details: remark: other sources report otherwise
T1 chain: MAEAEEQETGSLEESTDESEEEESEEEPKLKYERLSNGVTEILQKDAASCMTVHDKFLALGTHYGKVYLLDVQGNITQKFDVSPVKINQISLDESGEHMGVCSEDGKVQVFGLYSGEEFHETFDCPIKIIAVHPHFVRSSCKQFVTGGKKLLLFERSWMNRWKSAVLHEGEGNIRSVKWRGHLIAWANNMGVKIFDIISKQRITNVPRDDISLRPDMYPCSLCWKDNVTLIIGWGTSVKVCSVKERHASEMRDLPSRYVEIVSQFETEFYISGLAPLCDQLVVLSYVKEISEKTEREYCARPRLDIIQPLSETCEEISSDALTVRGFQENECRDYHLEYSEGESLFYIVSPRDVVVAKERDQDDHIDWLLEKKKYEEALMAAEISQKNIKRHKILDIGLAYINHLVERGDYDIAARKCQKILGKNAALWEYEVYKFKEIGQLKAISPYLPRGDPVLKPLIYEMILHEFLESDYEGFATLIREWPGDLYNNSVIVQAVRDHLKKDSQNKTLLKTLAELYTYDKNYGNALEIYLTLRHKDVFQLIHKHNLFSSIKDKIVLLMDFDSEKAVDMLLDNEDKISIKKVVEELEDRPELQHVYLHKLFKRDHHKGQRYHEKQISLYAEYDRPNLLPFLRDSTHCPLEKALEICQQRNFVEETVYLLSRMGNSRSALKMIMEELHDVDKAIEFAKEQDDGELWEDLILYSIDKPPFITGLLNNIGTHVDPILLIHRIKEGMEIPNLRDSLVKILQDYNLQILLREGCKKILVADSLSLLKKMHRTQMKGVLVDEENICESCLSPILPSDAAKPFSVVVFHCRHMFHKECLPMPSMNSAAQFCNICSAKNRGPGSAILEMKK

[2] = target: T2, HA-VPS3 (human (cDNA from HeLa Kyoto cells)) (UniProt Q8WUH2); assay: as above
T2 sequence: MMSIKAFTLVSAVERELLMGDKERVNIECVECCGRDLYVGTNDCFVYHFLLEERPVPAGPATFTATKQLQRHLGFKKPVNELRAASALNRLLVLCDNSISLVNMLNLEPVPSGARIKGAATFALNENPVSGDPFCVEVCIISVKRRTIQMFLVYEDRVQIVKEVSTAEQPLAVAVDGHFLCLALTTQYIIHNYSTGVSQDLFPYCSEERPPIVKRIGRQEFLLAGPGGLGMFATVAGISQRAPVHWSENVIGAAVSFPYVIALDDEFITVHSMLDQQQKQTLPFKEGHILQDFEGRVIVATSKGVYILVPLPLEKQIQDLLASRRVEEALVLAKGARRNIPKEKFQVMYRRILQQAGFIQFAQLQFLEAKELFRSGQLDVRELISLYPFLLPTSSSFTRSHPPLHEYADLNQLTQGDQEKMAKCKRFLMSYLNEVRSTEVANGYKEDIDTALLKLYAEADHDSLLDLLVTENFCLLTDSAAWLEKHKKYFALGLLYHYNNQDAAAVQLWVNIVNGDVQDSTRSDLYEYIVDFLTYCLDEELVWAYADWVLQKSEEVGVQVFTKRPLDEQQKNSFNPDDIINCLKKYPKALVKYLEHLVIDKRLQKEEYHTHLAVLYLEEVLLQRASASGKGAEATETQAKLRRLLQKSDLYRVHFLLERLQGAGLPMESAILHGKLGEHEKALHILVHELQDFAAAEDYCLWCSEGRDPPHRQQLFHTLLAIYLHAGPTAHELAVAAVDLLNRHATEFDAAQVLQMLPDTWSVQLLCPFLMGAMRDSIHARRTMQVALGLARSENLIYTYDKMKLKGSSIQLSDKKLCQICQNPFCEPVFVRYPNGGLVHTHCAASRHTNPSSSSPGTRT

B1: endogenous VPS3, Q8WUH2 1-860 (protein)
chain: MMSIKAFTLVSAVERELLMGDKERVNIECVECCGRDLYVGTNDCFVYHFLLEERPVPAGPATFTATKQLQRHLGFKKPVNELRAASALNRLLVLCDNSISLVNMLNLEPVPSGARIKGAATFALNENPVSGDPFCVEVCIISVKRRTIQMFLVYEDRVQIVKEVSTAEQPLAVAVDGHFLCLALTTQYIIHNYSTGVSQDLFPYCSEERPPIVKRIGRQEFLLAGPGGLGMFATVAGISQRAPVHWSENVIGAAVSFPYVIALDDEFITVHSMLDQQQKQTLPFKEGHILQDFEGRVIVATSKGVYILVPLPLEKQIQDLLASRRVEEALVLAKGARRNIPKEKFQVMYRRILQQAGFIQFAQLQFLEAKELFRSGQLDVRELISLYPFLLPTSSSFTRSHPPLHEYADLNQLTQGDQEKMAKCKRFLMSYLNEVRSTEVANGYKEDIDTALLKLYAEADHDSLLDLLVTENFCLLTDSAAWLEKHKKYFALGLLYHYNNQDAAAVQLWVNIVNGDVQDSTRSDLYEYIVDFLTYCLDEELVWAYADWVLQKSEEVGVQVFTKRPLDEQQKNSFNPDDIINCLKKYPKALVKYLEHLVIDKRLQKEEYHTHLAVLYLEEVLLQRASASGKGAEATETQAKLRRLLQKSDLYRVHFLLERLQGAGLPMESAILHGKLGEHEKALHILVHELQDFAAAEDYCLWCSEGRDPPHRQQLFHTLLAIYLHAGPTAHELAVAAVDLLNRHATEFDAAQVLQMLPDTWSVQLLCPFLMGAMRDSIHARRTMQVALGLARSENLIYTYDKMKLKGSSIQLSDKKLCQICQNPFCEPVFVRYPNGGLVHTHCAASRHTNPSSSSPGTRT
[1]
  binding: binds

B2: endogenous VPS8 (protein, UniProt Q8N3P4 1-1428)
chain: MENEPDHENVEQSLCAKTSEEELNKSFNLEASLSKFSYIDMDKELEFKNDLIDDKEFDIPQVDTPPTLESILNETDDEDESFILEDPTLLNIDTIDSHSYDTSSVASSDSGDRTNLKRKKKLPDSFSLHGSVMRHSLLKGISAQIVSAADKVDAGLPTAIAVSSLIAVGTSHGLALIFGKDQNQALRLCLGSTSVGGQYGAISALSINNDCSRLLCGFAKGQITMWDLASGKLLRSITDAHPPGTAILHIKFTDDPTLAICNDSGGSVFELTFKRVMGVRTCESRCLFSGSKGEVCCIEPLHSKPELKDHPITQFSLLAMASLTKILVIGLKPSLKVWMTFPYGRMDPSSVPLLAWHFVAVQNYVNPMLAFCRGDVVHFLLVKRDESGAIHVTKQKHLHLYYDLINFTWINSRTVVLLDSVEKLHVIDRQTQEELETVEISEVQLVYNSSHFKSLATGGNVSQALALVGEKACYQSISSYGGQIFYLGTKSVYVMMLRSWRERVDHLLKQDCLTEALALAWSFHEGKAKAVVGLSGDASKRKAIVADRMVEILFHYADRALKKCPDQGKIQVMEQHFQDMVPVIVDYCLLLQRKDLLFSQMYDKLSENSVAKGVFLECLEPYILSDKLVGITPQVMKDLIVHFQDKKLMENVEALIVHMDITSLDIQQVVLMCWENRLYDAMIYVYNRGMNEFISPMEKLFRVIAPPLNAGKTLTDEQVVMGNKLLVYISCCLAGRAYPLGDIPEDLVPLVKNQVFEFLIRLHSAEASPEEEIYPYIRTLLHFDTREFLNVLALTFEDFKNDKQAVEYQQRIVDILLKVMVENSDFTPSQVGCLFTFLARQLAKPDNTLFVNRTLFDQVLEFLCSPDDDSRHSERQQVLLELLQAGGIVQFEESRLIRMAEKAEFYQICEFMYEREHQYDKIIDCYLRDPLREEEVFNYIHNILSIPGHSAEEKQSVWQKAMDHIEELVSLKPCKAAELVATHFSGHIETVIKKLQNQVLLFKFLRSLLDPREGIHVNQELLQISPCITEQFIELLCQFNPTQVIETLQVLECYRLEETIQITQKYQLHEVTAYLLEKKGDIHGAFLIMLERLQSKLQEVTHQGENTKEDPSLKDVEDTMVETIALCQRNSHNLNQQQREALWFPLLEAMMAPQKLSSSAIPHLHSEALKSLTMQVLNSMAAFIALPSILQRILQDPVYGKGKLGEIQGLILGMLDTFNYEQTLLETTTSLLNQDLHWSLCNLRASVTRGLNPKQDYCSICLQQYKRRQEMADEIIVFSCGHLYHSFCLQNKECTVEFEGQTRWTCYKCSSSNKVGKLSENSSEIKKGRITPSQVKMSPSYHQSKGDPTAKKGTSEPVLDPQQIQAFDQLCRLYRGSSRLALLTELSQNRSSESYRPFSGSQSAPAFNSIFQNENFQLQLIPPPVTED
[2]
  binding: binds

B3: endogenous VPS8, Q8N3P4 1-1428 (protein)
chain: MENEPDHENVEQSLCAKTSEEELNKSFNLEASLSKFSYIDMDKELEFKNDLIDDKEFDIPQVDTPPTLESILNETDDEDESFILEDPTLLNIDTIDSHSYDTSSVASSDSGDRTNLKRKKKLPDSFSLHGSVMRHSLLKGISAQIVSAADKVDAGLPTAIAVSSLIAVGTSHGLALIFGKDQNQALRLCLGSTSVGGQYGAISALSINNDCSRLLCGFAKGQITMWDLASGKLLRSITDAHPPGTAILHIKFTDDPTLAICNDSGGSVFELTFKRVMGVRTCESRCLFSGSKGEVCCIEPLHSKPELKDHPITQFSLLAMASLTKILVIGLKPSLKVWMTFPYGRMDPSSVPLLAWHFVAVQNYVNPMLAFCRGDVVHFLLVKRDESGAIHVTKQKHLHLYYDLINFTWINSRTVVLLDSVEKLHVIDRQTQEELETVEISEVQLVYNSSHFKSLATGGNVSQALALVGEKACYQSISSYGGQIFYLGTKSVYVMMLRSWRERVDHLLKQDCLTEALALAWSFHEGKAKAVVGLSGDASKRKAIVADRMVEILFHYADRALKKCPDQGKIQVMEQHFQDMVPVIVDYCLLLQRKDLLFSQMYDKLSENSVAKGVFLECLEPYILSDKLVGITPQVMKDLIVHFQDKKLMENVEALIVHMDITSLDIQQVVLMCWENRLYDAMIYVYNRGMNEFISPMEKLFRVIAPPLNAGKTLTDEQVVMGNKLLVYISCCLAGRAYPLGDIPEDLVPLVKNQVFEFLIRLHSAEASPEEEIYPYIRTLLHFDTREFLNVLALTFEDFKNDKQAVEYQQRIVDILLKVMVENSDFTPSQVGCLFTFLARQLAKPDNTLFVNRTLFDQVLEFLCSPDDDSRHSERQQVLLELLQAGGIVQFEESRLIRMAEKAEFYQICEFMYEREHQYDKIIDCYLRDPLREEEVFNYIHNILSIPGHSAEEKQSVWQKAMDHIEELVSLKPCKAAELVATHFSGHIETVIKKLQNQVLLFKFLRSLLDPREGIHVNQELLQISPCITEQFIELLCQFNPTQVIETLQVLECYRLEETIQITQKYQLHEVTAYLLEKKGDIHGAFLIMLERLQSKLQEVTHQGENTKEDPSLKDVEDTMVETIALCQRNSHNLNQQQREALWFPLLEAMMAPQKLSSSAIPHLHSEALKSLTMQVLNSMAAFIALPSILQRILQDPVYGKGKLGEIQGLILGMLDTFNYEQTLLETTTSLLNQDLHWSLCNLRASVTRGLNPKQDYCSICLQQYKRRQEMADEIIVFSCGHLYHSFCLQNKECTVEFEGQTRWTCYKCSSSNKVGKLSENSSEIKKGRITPSQVKMSPSYHQSKGDPTAKKGTSEPVLDPQQIQAFDQLCRLYRGSSRLALLTELSQNRSSESYRPFSGSQSAPAFNSIFQNENFQLQLIPPPVTED
[1]
  binding: no binding

Results are given in words; binding and its absence hold for the method and conditions named. In cells and extracts the contact can be indirect. These calls come from enrichment with a bait or labelling near it, and not all partners need be listed. For part of these data: No binding means not detected with the bait. Where a sequence is shown, tags or fusion partners need not be part of it.
